# Source: the supplement of paper PMC8728848
# Some of the results follow.
# B1: Protein L(A-C2) (Finegoldia magna), Q51912 (protein)
# chain: ADEPIDLEKLEEKRDKENVGNLPKFDNEVKDGSENPMAKYPDFDDEASTRFETENNEFEEKKVVSDNFFDQSEHPFVENKEETPETPETDSEEEVTIKANLIFANGSTQTAEFKGTFEKATSEAYAYADTLKKDNGEYTVDVADKGYTLNIKFAGKEKTPEEPKEEVTIKANLIYADGKTQTAEFKGTFEEATAEAYRYADALKKDNGEYTVDVADKGYTLNIKFAGKEKTPEEPKEEVTIKANLIYADGKTQTAEFKGTFEEATAEAYRYADLLAKENGKYTVDVADKGYTLNIKFAGKEKTPEEPKEEVTIKANLIYADGKTQTAEFKGTFAEATAEAYRYADLLAKENGKYTADLEDGGYTINIRFAGKKVDEKPEEKEQVTIKENIYFEDGTVQTATFKGTFAEATAEAYRYADLLSKEHGKYTADLEDGGYTINIRFAGKEEPEETPEKPEVQDGYASYEEAEAAAKEALKNDDVNKSYTIRQGADGRYYYVLSPVEAEEEKPEAQNGYATYEEAEAAAKKALENDPINKSYSIRQGADGRYYYVLSPVEAE
# Tests used:
# Test in all cases: glycan array binding signal (z-score within array); higher = stronger binding
# Settings in all cases: glycan notation: IUPAC condensed, linker removed
# [1] = molecular target: Fuc(a1-2)[Gal(a1-3)]Gal(b1-4)GlcNAc(b1-2)Man(a1-3)[Fuc(a1-2)[Gal(a1-3)]Gal(b1-4)GlcNAc(b1-2)Man(a1-6)]Man(b1-4)GlcNAc(b1-4)GlcNAc
# Method in brief: (§1)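 Glycan array binding is given as a within-array Z-score, which can be read as non-binding when negative. The arrays, 3228 of them, came from the Consortium for Functional Glycomics database and were retained only where the protein sequence was available. Z-scores were averaged across arrays of the same protein sequence at different concentrations or buffers and across linkers.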
# [2] = molecular target: Fuc(a1-2)[Gal(a1-3)]Gal(b1-4)GlcNAc(b1-2)Man(a1-3)[Fuc(a1-2)[Gal(a1-3)]Gal(b1-4)GlcNAc(b1-2)Man(a1-6)]Man(b1-4)GlcNAc(b1-4)[Fuc(a1-6)]GlcNAc
# Method in brief: as §1
# [3] = molecular target: Fuc(a1-2)[Gal(a1-3)]Gal(b1-4)GlcNAc(b1-3)GalNAc
# Method in brief: as §1
# [4] = molecular target: Fuc(a1-2)[Gal(a1-3)]Gal(b1-4)GlcNAc(b1-6)GalNAc
# Method in brief: as §1
# [5] = molecular target: Fuc(a1-2)[Gal(a1-3)]Gal(b1-4)[Fuc(a1-3)]Glc
# Method in brief: as §1
# [6] = molecular target: Fuc(a1-2)[Gal(a1-3)]Gal(b1-4)[Fuc(a1-3)]GlcNAc
# Method in brief: as §1
# [7] = molecular target: Fuc(a1-2)[Gal(a1-3)]Gal(b1-4)[Fuc(a1-3)]GlcNAc(b1-3)GalNAc
# Method in brief: as §1
# [8] = molecular target: Fuc(a1-2)[Gal(a1-4)]Gal(b1-4)GlcNAc
# Method in brief: as §1
# [9] = molecular target: Fuc(a1-2)[GalNAc(a1-3)]Gal
# Method in brief: as §1
# [10] = molecular target: Fuc(a1-2)[GalNAc(a1-3)]Gal(b1-3)GalNAc(a1-3)[Fuc(a1-2)]Gal(b1-4)GlcNAc
# Method in brief: as §1
# [11] = molecular target: Fuc(a1-2)[GalNAc(a1-3)]Gal(b1-3)GalNAc(b1-3)Gal(a1-4)Gal(b1-4)Glc
# Method in brief: as §1
# [12] = molecular target: Fuc(a1-2)[GalNAc(a1-3)]Gal(b1-3)GlcNAc
# Method in brief: as §1
# [13] = molecular target: Fuc(a1-2)[GalNAc(a1-3)]Gal(b1-3)GlcNAc(b1-2)Man(a1-3)[Fuc(a1-2)[GalNAc(a1-3)]Gal(b1-3)GlcNAc(b1-2)Man(a1-6)]Man(b1-4)GlcNAc(b1-4)GlcNAc
# Method in brief: as §1
# [14] = molecular target: Fuc(a1-2)[GalNAc(a1-3)]Gal(b1-3)GlcNAc(b1-2)Man(a1-3)[Fuc(a1-2)[GalNAc(a1-3)]Gal(b1-3)GlcNAc(b1-2)Man(a1-6)]Man(b1-4)GlcNAc(b1-4)[Fuc(a1-6)]GlcNAc
# Method in brief: as §1
# [15] = molecular target: Fuc(a1-2)[GalNAc(a1-3)]Gal(b1-3)GlcNAc(b1-3)GalNAc
# Method in brief: as §1
# [16] = molecular target: Fuc(a1-2)[GalNAc(a1-3)]Gal(b1-3)GlcNAc(b1-6)GalNAc
# Method in brief: as §1
# [17] = molecular target: Fuc(a1-2)[GalNAc(a1-3)]Gal(b1-4)Glc
# Method in brief: as §1
# [18] = molecular target: Fuc(a1-2)[GalNAc(a1-3)]Gal(b1-4)GlcNAc
# Method in brief: as §1
# [19] = molecular target: Fuc(a1-2)[GalNAc(a1-3)]Gal(b1-4)GlcNAc(b1-2)Man
# Method in brief: as §1
# [20] = molecular target: Fuc(a1-2)[GalNAc(a1-3)]Gal(b1-4)GlcNAc(b1-2)Man(a1-3)[Fuc(a1-2)[GalNAc(a1-3)]Gal(b1-4)GlcNAc(b1-2)Man(a1-6)]Man(b1-4)GlcNAc(b1-4)GlcNAc
# Method in brief: as §1
# [21] = molecular target: Fuc(a1-2)[GalNAc(a1-3)]Gal(b1-4)GlcNAc(b1-2)Man(a1-3)[Fuc(a1-2)[GalNAc(a1-3)]Gal(b1-4)GlcNAc(b1-2)Man(a1-6)]Man(b1-4)GlcNAc(b1-4)[Fuc(a1-6)]GlcNAc
# Method in brief: as §1
# [22] = molecular target: Fuc(a1-2)[GalNAc(a1-3)]Gal(b1-4)GlcNAc(b1-3)Gal(b1-4)GlcNAc
# Method in brief: as §1
# [23] = molecular target: Fuc(a1-2)[GalNAc(a1-3)]Gal(b1-4)GlcNAc(b1-3)Gal(b1-4)GlcNAc(b1-3)Gal(b1-4)GlcNAc
# Method in brief: as §1
# [24] = molecular target: Fuc(a1-2)[GalNAc(a1-3)]Gal(b1-4)GlcNAc(b1-3)GalNAc
# Method in brief: as §1
# [25] = molecular target: Fuc(a1-2)[GalNAc(a1-3)]Gal(b1-4)GlcNAc(b1-3)[Fuc(a1-2)[GalNAc(a1-3)]Gal(b1-4)GlcNAc(b1-6)]GalNAc
# Method in brief: as §1
# [26] = molecular target: Fuc(a1-2)[GalNAc(a1-3)]Gal(b1-4)GlcNAc(b1-6)GalNAc
# Method in brief: as §1
# [27] = molecular target: Fuc(a1-2)[GalNAc(a1-3)]Gal(b1-4)[Fuc(a1-3)]GlcNAc
# Method in brief: as §1
# [28] = molecular target: Fuc(a1-2)[GalNAc(a1-3)]Gal(b1-4)[Fuc(a1-3)]GlcNAc(b1-3)GalNAc
# Method in brief: as §1
# [29] = molecular target: Fuc(a1-2)[GalNAc(a1-4)]Gal(b1-4)GlcNAc
# Method in brief: as §1
# [30] = molecular target: Fuc(a1-2)[GalNAc(b1-3)]Gal
# Method in brief: as §1
binder,measurement,setting,value
B1,glycan array binding signal (z-score),[1],0.179
same,glycan array binding signal (z-score),[2],0.994
same,glycan array binding signal (z-score),[3],6.17
same,glycan array binding signal (z-score),[4],-0.631
same,glycan array binding signal (z-score),[5],-0.668
same,glycan array binding signal (z-score),[6],1.92
same,glycan array binding signal (z-score),[7],1.74
same,glycan array binding signal (z-score),[8],-0.541
same,glycan array binding signal (z-score),[9],-0.96
same,glycan array binding signal (z-score),[10],-0.447
same,glycan array binding signal (z-score),[11],-0.93
same,glycan array binding signal (z-score),[12],-0.763
same,glycan array binding signal (z-score),[13],-0.22
same,glycan array binding signal (z-score),[14],-0.611
same,glycan array binding signal (z-score),[15],0.96
same,glycan array binding signal (z-score),[16],-0.499
same,glycan array binding signal (z-score),[17],-0.792
same,glycan array binding signal (z-score),[18],-0.631
same,glycan array binding signal (z-score),[19],-0.555
same,glycan array binding signal (z-score),[20],0.913
same,glycan array binding signal (z-score),[21],0.519
same,glycan array binding signal (z-score),[22],-0.566
same,glycan array binding signal (z-score),[23],1.09
same,glycan array binding signal (z-score),[24],-0.485
same,glycan array binding signal (z-score),[25],0.896
same,glycan array binding signal (z-score),[26],-1.04
same,glycan array binding signal (z-score),[27],3.52
same,glycan array binding signal (z-score),[28],1.92
same,glycan array binding signal (z-score),[29],0.129
same,glycan array binding signal (z-score),[30],-0.856

# A second format for some results above.
binder	measurement	setting	value
B1	glycan array binding signal (z-score)	[1]	0.179
same	glycan array binding signal (z-score)	[2]	0.994
